Data from patent US20210171576A1, “METHODS FOR TREATING CANCER WITH ACYLDEPSIPEPTIDE ANALOGS” (priority 2018, published 2021).

Test system: mitochondrial proteins of HEK293 T-REx cells
Assay: Mitochondrial proteome profiling for WT and CLPP^−/− (fold change CLPP^−/−/WT)
Design: species or system human
Settings: MaxQuant total peptide ion intensity
[1] = fold change of mitochondrial protein detected in CLPP knockout compared to WT HEK293 T-REx cells

Row | Substance | Avg. fold change (CLPP KO/WT) [1] | Avg. fold change (CLPP KO/WT) ([…])
1 | AIFM1 | −1.48 | 
2 | ATP5B | 1.45 | 
3 | ATP5H | 1.09 | 
4 | CKMT1A | −1.44 | 
5 | CLPX | −1.09 | 
6 | DLST | 1.46 | 
7 | HADHA | 1.40 | 
8 | HSPA9 | 1.08 | 
9 | HSPE1 | −1.14 | 
10 | PDHX | −2.36 | 
11 | POLRMT | 1.79 | 
12 | RHOT1 | −3.16 | 
13 | SDHA |  | 5.48
14 | SLC25Al | 2.58 | 
15 | TIMM13 | −1.70 | 
16 | TOMM20 | 3.78 | 
